Laboratory results as given in ChEMBL document CHEMBL1139291, “Syntheses and opioid receptor binding properties of carboxamido-substituted opioids” (Bioorg Med Chem Lett, 2009).

By UniProt entry, the sequences of proteins in these tests, tags left out.
UniProt P35372, whole entry: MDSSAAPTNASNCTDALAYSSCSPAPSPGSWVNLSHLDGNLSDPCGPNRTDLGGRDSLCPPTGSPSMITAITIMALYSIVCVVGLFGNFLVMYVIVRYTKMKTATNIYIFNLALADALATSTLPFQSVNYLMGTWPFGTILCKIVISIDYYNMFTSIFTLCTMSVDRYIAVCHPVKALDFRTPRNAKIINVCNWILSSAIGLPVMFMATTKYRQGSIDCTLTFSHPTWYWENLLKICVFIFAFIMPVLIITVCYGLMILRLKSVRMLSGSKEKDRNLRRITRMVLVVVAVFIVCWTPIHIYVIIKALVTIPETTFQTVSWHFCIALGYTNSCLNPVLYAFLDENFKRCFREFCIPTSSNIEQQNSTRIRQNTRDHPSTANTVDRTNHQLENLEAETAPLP

Key:
Mu-type opioid receptor [1] = molecular target: T1, Mu-type opioid receptor (Homo sapiens, UniProt P35372); assay: Activity at human cloned mu opioid receptor expressed in CHO cells assessed as inhibition of DAMGO-induced [35S]GTPgammaS binding; type: functional, cell-based
Mu-type opioid receptor [2] = molecular target: T1, Mu-type opioid receptor; assay: Activity at human cloned mu opioid receptor expressed in CHO cells by [35S]GTPgammaS binding assay; type: functional, cell-based
[3] = Displacement of [3H]Naltrindole form delta opioid receptor in guinea pig brain; set-up: species or system Cavia porcellus
Summary of the method: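 Guinea pig brain membrane protein incubated with 12 concentrations of compound and 0.2 nM [3H]naltrindole in 50 mM Tris–HCl, pH 7.5, with 10 mM MgCl2 and 0.5 mM PMSF, for 3 h at 25 °C. […] Samples filtered onto polyethyleneimine-soaked glass fiber filters, washed, and counted by scintillation. IC50 came from log-probit fit, and Ki = IC50/(1 + [radioligand]/Kd).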

Row | Compound | IC50 (Mu-type opioid receptor [1]) | EC50 (Mu-type opioid receptor [2]) | Ki [3]
1 | CC1C2C(=O)c3ccc(C(N)=O)cc3C1(C)CCN2CC1CC1 (stereo not drawn) | 0.15 µM | 0.0042 µM | 
2 | CN1CC[C@]23c4c5ccc(O)c4O[C@H]2[C@@H](O)C=C[C@H]3[C@H]1C5 [MORPHINE] |  |  | 0.14 µM
